Experimental data: PMC4947154
These are yes or no findings as the source states them, for the method shown. Some binding calls cover weakened binding; strength is not graded here.

Amino acid sequences for entries named in this document (tags omitted). Residues count along the entry.
CD320 extracellular domain, residues 53-199 (crystallization construct) (Q9NPF0, residues 53-199): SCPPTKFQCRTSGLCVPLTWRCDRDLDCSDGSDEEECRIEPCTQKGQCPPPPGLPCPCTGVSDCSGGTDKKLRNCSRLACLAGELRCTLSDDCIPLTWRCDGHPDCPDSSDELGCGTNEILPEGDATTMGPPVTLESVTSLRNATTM
CD320 LDLR-A1 domain (residues 53-95) (Q9NPF0, residues 53-95): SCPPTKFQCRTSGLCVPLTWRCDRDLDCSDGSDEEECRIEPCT
CD320 LDLR-A2 domain (residues 125-199), in complex with TC (Q9NPF0, residues 125-199): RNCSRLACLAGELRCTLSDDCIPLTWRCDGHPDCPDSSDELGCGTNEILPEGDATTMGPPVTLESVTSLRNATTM

Columns and labels:
[1] = biological target: CD320 LDLR-A1 domain (residues 53-95) (human) (UniProt Q9NPF0); assay: co-expression and co-purification; TC construct and His9-MBP-CD320 construct co-expressed and secreted from Sf21 cells, complex captured from the medium on Ni-NTA through the receptor's tag
[2] = biological target: CD320 LDLR-A2 domain (residues 125-199), in complex with TC (human) (UniProt Q9NPF0); assay: as above
[3] = biological target: CD320 extracellular domain, residues 53-199 (crystallization construct) (human) (UniProt Q9NPF0); assay: crystal structure; co-crystals of the purified complex, sitting drop, 20 °C; both purified
[4] = biological target: CD320 LDLR-A2 domain (residues 125-199), in complex with TC (human) (UniProt Q9NPF0); assay: SEC; purified complexes, 0.5-1 mg/ml in 20 mM Tris pH 7.5, 0.5 mM CaCl2, 150 mM NaCl, G3000SWxl column at 4 °C, after heating for 10 min at selected temperatures (thermostability; also with 10 mM EGTA without Ca2+); SEC profiles of purified complexes; both purified

- binding [1]: binds weakly
- binding [2]: binds
- binding [3]: binds
- binding [4]: binds
B1: human transcobalamin (holo-TC, cyanocobalamin-bound) (protein, UniProt P20062 19-427)
chain: EMCEIPEMDSHLVEKLGQHLLPWMDRLSLEHLNPSIYVGLRLSSLQAGTKEDLYLHSLKLGYQQCLLGSAFSEDDGDCQGKPSMGQLALYLLALRANCEFVRGHKGDRLVSQLKWFLEDEKRAIGHDHKGHPHTSYYQYGLGILALCLHQKRVHDSVVDKLLYAVEPFHQGHHSVDTAAMAGLAFTCLKRSNFNPGRRQRITMAIRTVQEEILKAQTPEGHFGNVYSTPLALQFLMTSPMRGAELGTACLKARVALLASLQDGAFQNALMISQLLPVLNHKTYIDLIFPDCLAPRVMLEPAAETIPQTQEIISVTLQVLSLLPPYRQSISVLAGSTVEDVLKKAHELGGFTYETQASLSGPYLTSVMGKAAGEREFWQLLRDPNTPLLQGIADYRPKDGETIELRLVSW
